Source: PubChem BioAssay AID1508600 (Functional Genomics Laboratory (NCATS/FGL), 2020)
The whole screen tested about 53,000 sequences, of which about 3,700 (7%) were called active.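 The calls were made as follows: active = gene knockdowns whose robust z-score for IL-1 alpha signal is at least 2 or at most -2, so actives lie on both sides; inactive = the rest.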 Some of the results follow.

Assay: Components of the Cytosolic LPS Sensing Pathway: Gene Identification via Genome-wide siRNA Screen;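 also: robust z of the log signal after scaling to non-targeting control siRNA wells of the plate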
Conditions: RAW264.7 macrophages, IL-1a HTRF, actives lie on both sides, screened at 100 nM (by protocol), cells primed 5 h with Pam3CSK4 first
In short: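 Read-out: IL-1a HTRF on supernatant, divided by plate negative-control median ×100, log-transformed and converted to robust z-score. Cells were RAW264.7 given 100 nM siRNA, Pam3CSK4-primed 5 hours, then LipidA-transfected 24 hour.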

Sequence | z-score
CCUAAAUCCUCUAUUUUGGTT against Fmn2 | inactive: -1.1
GCCUAAGUUUGACUUAUAATT against Parp12 | inactive: -0.0522
CGAGCUUGCUAUCGGGAAGTT against Defb7 | inactive: -0.902
GGCAAAGGCUAUCGCUCACTT against Smpd2 | inactive: -1.46
GCAUAUUGUGAUAUCAGUGTT against Siglecf | inactive: 0.77
UCUUAUGCCUUGGUGCUCATT against Olfr746 | inactive: -1.61
GGAUCAGCCCAUCUACUUGTT against Nenf | inactive: 0.0601
CCUGAUCAAGGUGAAACGGTT against Btnl2 | inactive: -0.247
CCUGCUCAUUGCAGUGACGTT against Olfr1243 | inactive: -1.09
GCCUUUCAAGAUUUGUGGGTT against Mreg | inactive: -1.4
GGCCAAACAAGACAUUCAGTT against Slmap | inactive: 1.33
GGGACCAGAAUAUGACUGGTT against Ppm1j | inactive: 0.282
GGCAGAAGUGGAAAAACAATT against Tmco1 | inactive: -0.417
GGAAUAUCACUUCCAUACATT against Ntrk3 | inactive: 0.587
GCUCCUUUAGCAUCUUAAUTT against Ccdc28a | inactive: 2
GGAAGGAUCCCAAAUUCAGTT against Pebp1 | inactive: 1.91
CCAGAAAACCAAACAACAGTT against Olfr1357 | inactive: 0.287
GGCCCUAGCAGAUGAAAAATT against Ubl4a | inactive: -0.235
GGAGAACAACAGUAAUUACTT against Reps2 | inactive: -1.28
GGAAAGAGUAAUAAUUGUCTT against Cyp1b1 | inactive: -1.57
GGGUCAUCCAAACGCACAGTT against Uvrag | inactive: 0.609
GGAAUUCUAUGGUCUAACGTT against Usp46 | inactive: -0.867
GGCUAUGAGGACUAUCUGUTT against Dmbt1 | inactive: -0.409

Sequence | z-score
CGUGCUCAUAAUUUUGAACTT against Gcc2 | inactive: 0.178
GGGACCAAUGUUCCAGGAATT against Ms4a4b | inactive: -0.233
GGCAUUCAGAGCUGAUUCATT against Mia3 | inactive: 0.93
GGCUAAAGUUGACAGCCAATT against Cd52 | inactive: 0.0939
CCGAGUAAUUGGAAGUGGUTT against Ldha | active: 2.08
CCAGCUAAACUCUGUAAAATT against Zfp639 | inactive: -0.113
CGUCCUCAGGCAAAUGACUTT against Snx21 | inactive: -0.75
GGUUCUGGGACUUAACAAATT against Rgs12 | inactive: 0.793
GGUAUAGUAGUGGAAGAUUTT against Uso1 | inactive: 0.341
GCCUUGGUAUGUUUCUAUUTT against Slc38a11 | inactive: 0.974
GGUUCAGCUGGUCCUAUCUTT against Olfr1099 | active: -2.07
GGUCCUUCACAGUUAUGUGTT against Nsun4 | inactive: 0.104
GGGAAAGAUAAUGGCCUGCTT against Tnfrsf23 | inactive: 0.0994
GCAUUUGUAGUUAUUUCACTT against C1d | inactive: -0.732
GGUUCUCACCACUGUAGACTT against Slc7a14 | inactive: -0.576
CCCUGGGUGUACAAGUCCUTT against Slc25a41 | inactive: -0.084
GGCUAAUGAACCACUUUUUTT against Elobl | inactive: -0.49
GCUGUGAUCAGGACGAGAATT against Stx2 | inactive: 0.187
CGAUUCCAUUCUUAACAUATT against Crlf3 | inactive: -0.353
GCUGGAUCACCGUUAUAAUTT against Wdr17 | inactive: -0.429
GGGUACCCUAGCUCUGUUATT against Timp2 | inactive: -1.35
GGGAUUUGGUCAGCUAACCTT against Acp2 | inactive: -1.06
GGAGAAAUAUGACAUGGAGTT against Tnni2 | inactive: 0.432

No new results follow: an excerpt of the list.
Sequence | z-score
GGUAUAGUAGUGGAAGAUUTT against Uso1 | inactive: 0.341
GCCUUGGUAUGUUUCUAUUTT against Slc38a11 | inactive: 0.974

(listing goes on)

Sequence | z-score
GGGUAACAGUGGUGAACCUTT against Col1a1 | active: 2.08
GCGGCAUUGUCUACAUCCATT against Emp3 | inactive: 0.209
GCCGCAUUGAGUACAUGGUTT against Ap1m1 | inactive: 1.9
GGAACUCCAUCUUCUGUAATT against Olfr1491 | inactive: -1.06
GCCAACUUAUGUUGUACGCTT against Tmem101 | inactive: 1.29
GGGCCUAGACCGUAUCUUCTT against Kcnj12 | inactive: 0.0859
GGACAAACCUUGGAAGAUUTT against Ccdc166 | inactive: -0.24
CCGAUUAAAAGAGUGUUUGTT against Nudt8 | inactive: 1.85
GGGUAUGACCGGUAUUACATT against Atp5j2 | inactive: 0.213
GGUCAAGACACAGUUUAACTT against Tgif2lx1 | inactive: 0.474
GCUUAAGAGAUUCAAAUUGTT against Olfr1317 | inactive: 0.036
GGCCAGUACGAAUGCUCCUTT against Dlk1 | inactive: -0.524
GCCAAGAGGACUUACUCUCTT against Marchf3 | inactive: 1.85
GGGAAACAGACUUUUUUUATT against Arid3a | inactive: 0.953
GGAUGUUCAGCAAUCCCUGTT against Rnf121 | inactive: -0.851
CCCAUUUAGACUAGUUUAATT against Hsf2 | inactive: 2
GGGAAUGUCUGACUUCCAGTT against Gtf3c5 | inactive: 1.59
GGCUUCUUCUUCCUUUUUATT against Sra1 | inactive: -0.848
GGGCUUCAUAAUCACCUUCTT against Rad51c | inactive: -0.998
GGCAUGGAAGGCUUUAAUUTT against Gad1 | inactive: -0.697
GGAGGCUUAUCCUAAAAAGTT against 6330444E15Rik | inactive: -1.02
GGAAGAAUGAAGAAGUAAUTT against Cacng3 | inactive: 1.35

Some of the entries so far, as tab-separated lines.
Sequence	z-score
GGCAAAGGCUAUCGCUCACTT against Smpd2	inactive: -1.46
GGCUAAAGUUGACAGCCAATT against Cd52	inactive: 0.0939
GGGAAAGAUAAUGGCCUGCTT against Tnfrsf23	inactive: 0.0994
